These are yes or no findings as the source states them, for the method shown. A result given as binding can be weak or reduced; the word gives no strength.
Molecular target: untagged Hop1-CTD (S. cerevisiae)
Assay: far-Western, overlay or dot blot; increasing concentrations of untagged Hop1-CTD (or MsRecA) spotted on nitrocellulose; probed with purified Hop1 HORMA in blocking buffer (25 mM HEPES pH 7.5, 100 mM NaCl, 1 mM EDTA, 5% skimmed milk) for 12 h at 4°C; detected with anti-His antibodies; both purified

B1: Hop1 HORMA domain (domain or fragment, UniProt P20050 20-250)
chain: EQSQKLLQTMLTMSFGCLAFLRGLFPDDIFVDQRFVPEKVEKNYNKQNTSQNNSIKIKTLIRGKSAQADLLLDWLEKGVFKSIRLKCLKALSLGIFLEDPTDLLENYIFSFDYDEENNVNINVNLSGNKKGSKNADPENETISLLDSRRMVQQLMRRFIIITQSLEPLPQKKFLTMRLMFNDNVDEDYQPELFKDATFDKRATLKVPTNLDNDAIDVGTLNTKHHKVALSV
modifications: Red-tris-NTA label (in the MST only)
For B1, the binding was “binds”.

Reference: publication PMC11797056, “The ATPase activity of yeast chromosome axis protein Hop1 affects the frequency of meiotic crossovers” (Nucleic Acids Research, 2024)
